PubChem BioAssay AID1259405 – NCATS – 2018
Screen: 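Knock-downs that lift recombinant protein yield in hamster ovary cells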 (primary screen). System: Chinese hamster CHO-K1 ovary cells with stable secreted eGFP expression. Reagent: single siRNA against mouse genes, 0.8 pmol siRNA per well (2 µl of 400 nM stock). Time to read-out: 3 days. Read-out: 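Percent of the per-plate non-targeting control median for intracellular GFP per well by laser scanning cytometry and for cell viability by ATP luminescence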. Direction: GFP, % of control: higher = more GFP per well, higher productivity; viability (ATP), % of control: higher = more viable cells (more ATP). Call rule: 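Called active when intracellular GFP, relative to negative control, is at or above 120%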.
This is an unselected part of about 50,000 reagents tested. Over the whole deposit, about 4,000 (8%) were called active. 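Mouse siRNA library applied to hamster cells; one well for each siRNA.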 The numbers tell different reagents against one gene apart. Reagent sequences are not shown.

Ahsg #1 scored GFP, % of control 213; viability (ATP), % of control 79.6; active.
Silencing of Ahsg #2 came out at: GFP, % of control 61.4; viability (ATP), % of control 58.6; inactive.
Ahsg #3 gave GFP, % of control 98.9; viability (ATP), % of control 65.5; inactive.
Against Psg18 #1 the deposit lists GFP, % of control 29.2; viability (ATP), % of control 31.7; inactive.
With knock-down of Psg18 #2, the record shows GFP, % of control 75.9; viability (ATP), % of control 56.1; inactive.
Against Psg18 #3 the deposit lists GFP, % of control 88; viability (ATP), % of control 89.3; inactive.
Rbpms2 #1 gave GFP, % of control 83.8; viability (ATP), % of control 93.9; inactive.
Depletion of Rbpms2 #2 came out at: GFP, % of control 81.6; viability (ATP), % of control 88.4; inactive.
Rbpms2 #3 scored GFP, % of control 63.8; viability (ATP), % of control 78.4; inactive.
With knock-down of Slc25a10 #1 the results were GFP, % of control 107; viability (ATP), % of control 82.4; inactive.
Against Slc25a10 #2, the entry reads GFP, % of control 120; viability (ATP), % of control 99.9; inactive.
For Slc25a10 #3, the values are GFP, % of control 56.7; viability (ATP), % of control 84.1; inactive.
For Hapln3 #1, the values are GFP, % of control 55.7; viability (ATP), % of control 41; inactive.
Silencing of Hapln3 #2 came out at: GFP, % of control 97.7; viability (ATP), % of control 72.9; inactive.
Against Hapln3 #3, the entry reads GFP, % of control 63.7; viability (ATP), % of control 48.9; inactive.
For Mrpl50 #1, the values are GFP, % of control 92.3; viability (ATP), % of control 83.1; inactive.
Against Mrpl50 #2 the deposit lists GFP, % of control 111; viability (ATP), % of control 92.5; inactive.
Depletion of Mrpl50 #3 came out at: GFP, % of control 91; viability (ATP), % of control 58.3; inactive.
